# The list shows a part of the results, in another mix than the full data. For some assays here: At the low end of the ranking the order means little. Some of the results follow. For some assays here: The source does not settle which construct or isoform was used.
# The chains behind the UniProt entries cited, without tags or fusion partners. Where a name states a change or a piece, a line headed by the entry shows the natural chain unless it says otherwise.
# UniProt Q00613: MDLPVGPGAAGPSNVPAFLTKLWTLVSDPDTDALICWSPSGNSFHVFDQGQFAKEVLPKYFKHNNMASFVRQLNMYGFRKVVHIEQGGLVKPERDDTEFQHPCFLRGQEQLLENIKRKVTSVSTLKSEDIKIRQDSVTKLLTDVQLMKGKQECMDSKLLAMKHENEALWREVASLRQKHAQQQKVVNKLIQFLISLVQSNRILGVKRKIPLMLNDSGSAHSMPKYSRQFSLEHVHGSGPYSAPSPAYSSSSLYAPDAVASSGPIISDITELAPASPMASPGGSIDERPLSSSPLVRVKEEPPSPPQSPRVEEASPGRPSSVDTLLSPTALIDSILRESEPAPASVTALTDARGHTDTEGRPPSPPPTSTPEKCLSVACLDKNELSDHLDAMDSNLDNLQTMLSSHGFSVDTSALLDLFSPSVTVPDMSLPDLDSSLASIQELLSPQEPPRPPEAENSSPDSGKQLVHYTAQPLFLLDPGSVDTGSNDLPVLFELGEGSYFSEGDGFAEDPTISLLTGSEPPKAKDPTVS
# Target: HSF1 (UniProt Q00613)
# Assay: DAPPL (digital affinity profiling via proximity ligation, sequencing)
# Conditions: 10 mM Tris-HCl pH 7.5, 50 mM NaCl, 1 mM DTT, 4% glycerol, room temperature, 30 min; GST-TFs on glutathione beads, 16-mer random dsDNA library, 0.1% …; high values mean tight binding; double strand, one strand shown; scale: fold enrichment (6-mer frequency, TF over GST control)
row,Sequence,binding signal
1,ATACAT,1.01
2,GCTGAC,0.792
3,CTCTAT,1.11
4,TCGTTT,1.02
5,CGTCTT,1.31
6,ATGCAG,0.903
7,GGGTTC,0.999
8,TCAGCA,0.953
9,TGAAAT,1.02
10,CTAGGG,0.949
11,GAAACA,1.22
12,TCTAGG,1.7
13,TGCCTT,1.27
14,AAGTTG,0.908
15,CGCTGT,0.715
16,GTAGTT,0.818
17,CCCAAG,0.948
18,GGGCAT,0.77
19,GATGGG,0.821
20,TAAGAA,1.77

row,Sequence,binding signal
1,TTGGCG,0.875
2,CGGCAC,0.686
3,AACTCC,1.23
4,ATGGTC,1.01
5,ATAGGC,0.932
6,ACGCCA,0.724
7,CGGTTT,0.935
8,ATAGGG,0.906
9,ATAGTC,0.946
10,CAGCTC,0.937
11,GCCGCA,0.817
12,TGGGCA,0.764
13,TTTGGA,1.48
14,AGTGTT,0.955
15,TCTGAG,0.961
16,CCGCAT,1.13
17,ACCTGA,0.922
18,ACTGTT,1.03
19,TAAGCC,2.07
20,GCACGC,0.894

# Target: T1, ELF2 (UniProt Q15723)
# T1 sequence: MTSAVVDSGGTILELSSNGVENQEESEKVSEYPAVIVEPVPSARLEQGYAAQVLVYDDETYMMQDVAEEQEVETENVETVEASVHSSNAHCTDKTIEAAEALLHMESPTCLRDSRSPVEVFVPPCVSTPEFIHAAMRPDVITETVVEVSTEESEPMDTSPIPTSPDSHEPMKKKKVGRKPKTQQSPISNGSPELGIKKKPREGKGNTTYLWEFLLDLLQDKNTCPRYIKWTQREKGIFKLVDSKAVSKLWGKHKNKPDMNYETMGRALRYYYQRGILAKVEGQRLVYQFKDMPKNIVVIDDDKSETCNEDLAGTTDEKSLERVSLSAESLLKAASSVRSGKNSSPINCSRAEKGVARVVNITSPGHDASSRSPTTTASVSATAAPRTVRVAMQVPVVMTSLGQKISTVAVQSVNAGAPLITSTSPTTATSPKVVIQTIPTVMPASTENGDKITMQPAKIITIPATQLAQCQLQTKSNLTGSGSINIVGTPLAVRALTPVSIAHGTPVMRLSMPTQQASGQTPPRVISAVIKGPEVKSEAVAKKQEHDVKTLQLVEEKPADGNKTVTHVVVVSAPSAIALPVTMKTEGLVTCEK
# Assay: as above
# Conditions: 10 mM Tris-HCl pH 7.5, 50 mM NaCl, 1 mM DTT, 4% glycerol, room temperature, 30 min; GST-TFs on glutathione beads, 16-mer random dsDNA library, 0.1% …; high values mean tight binding; double strand, one strand shown; scale: fold enrichment (6-mer frequency, TF over GST control)
row,Sequence,binding signal
1,ATACAT,1.27
2,GCTGAC,1.08
3,CTCTAT,1.13
4,TCGTTT,1.18
5,CGTCTT,1.37
6,ATGCAG,1.05
7,GGGTTC,1.13
8,TCAGCA,0.97
9,TGAAAT,0.991
10,CTAGGG,0.809
11,GAAACA,1.45
12,TCTAGG,1.05
13,TGCCTT,1.35
14,AAGTTG,1.15
15,CGCTGT,0.952
16,GTAGTT,1.06
17,CCCAAG,0.986
18,GGGCAT,0.876
19,GATGGG,0.928
20,TAAGAA,1.03

row,Sequence,binding signal
1,TTGGCG,0.951
2,CGGCAC,0.925
3,AACTCC,1.32
4,ATGGTC,1.4
5,ATAGGC,0.973
6,ACGCCA,0.871
7,CGGTTT,1.4
8,ATAGGG,0.985
9,ATAGTC,0.903
10,CAGCTC,0.932
11,GCCGCA,0.961
12,TGGGCA,0.931
13,TTTGGA,1.11
14,AGTGTT,1.13
15,TCTGAG,0.867
16,CCGCAT,1.88
17,ACCTGA,1.01
18,ACTGTT,1.14
19,TAAGCC,1.1
20,GCACGC,1.01

# From PMC7862700
